{"source": "patent US10577341B1", "about": "“Beraprost-314d monohydrate crystals and methods for preparation thereof” (CHIROGATE INTERNATIONAL INC., priority 2018, dated 2020)", "assay": "Stability of anhydrous form versus monohydrate form of Beraprost-314d; assay and total impurities by HPLC after storage at 40° C.", "format": "physicochemical", "conditions": "40° C./60% RH, 2 days", "method": "The Beraprost-314d monohydrate is stable at room temperature. For example, the formation of dimer and/or unwanted esterification byproducts by the presence of hydrates can be avoided. […] The assay and total impurities of Beraprost-314d monohydrate and anhydrous Beraprost-314d were measured by HPLC after treatment at 40° C., as shown in Table 3.", "note": "At least one compound was matched to its structure with a doubt left."}
{"compound": "CC#CC[C@H](C)[C@H](O)/C=C/[C@@H]1[C@H]2c3cccc(CCCC(=O)O)c3O[C@H]2C[C@H]1O", "note": "[Anhydrous Beraprost-314d, Beraprost-314d]", "values": [{"measurement": "Total Impurities", "result": "I .13%"}]}
